Laboratory results published in the supplement of paper PMC12823440, “Inhibitors supercharge kinase turnover through native proteolytic circuits” (Nature, 2025).
Counter-ions that a name gives are not always drawn. The list shows a part of the results. Hit calls seldom repeat between salt and free forms of one compound.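 In K562 cells expressing nanoluciferase-fused kinases, luminescence was recorded at 4 h intervals between 2 and 18 h, normalized as percent of control with DMSO at 100% and a positive control at 0%. A significant (2 sigma) signal drop marks a time point as decreased. The authors' rule for a hit is not shown and takes in more than the number of time points.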

Protein sequences, listed by entry. Tags and fused reporters are not part of them. Lines headed by an entry give the natural chain unless they say otherwise; changes in a name come on top.
UniProt P00519, whole entry: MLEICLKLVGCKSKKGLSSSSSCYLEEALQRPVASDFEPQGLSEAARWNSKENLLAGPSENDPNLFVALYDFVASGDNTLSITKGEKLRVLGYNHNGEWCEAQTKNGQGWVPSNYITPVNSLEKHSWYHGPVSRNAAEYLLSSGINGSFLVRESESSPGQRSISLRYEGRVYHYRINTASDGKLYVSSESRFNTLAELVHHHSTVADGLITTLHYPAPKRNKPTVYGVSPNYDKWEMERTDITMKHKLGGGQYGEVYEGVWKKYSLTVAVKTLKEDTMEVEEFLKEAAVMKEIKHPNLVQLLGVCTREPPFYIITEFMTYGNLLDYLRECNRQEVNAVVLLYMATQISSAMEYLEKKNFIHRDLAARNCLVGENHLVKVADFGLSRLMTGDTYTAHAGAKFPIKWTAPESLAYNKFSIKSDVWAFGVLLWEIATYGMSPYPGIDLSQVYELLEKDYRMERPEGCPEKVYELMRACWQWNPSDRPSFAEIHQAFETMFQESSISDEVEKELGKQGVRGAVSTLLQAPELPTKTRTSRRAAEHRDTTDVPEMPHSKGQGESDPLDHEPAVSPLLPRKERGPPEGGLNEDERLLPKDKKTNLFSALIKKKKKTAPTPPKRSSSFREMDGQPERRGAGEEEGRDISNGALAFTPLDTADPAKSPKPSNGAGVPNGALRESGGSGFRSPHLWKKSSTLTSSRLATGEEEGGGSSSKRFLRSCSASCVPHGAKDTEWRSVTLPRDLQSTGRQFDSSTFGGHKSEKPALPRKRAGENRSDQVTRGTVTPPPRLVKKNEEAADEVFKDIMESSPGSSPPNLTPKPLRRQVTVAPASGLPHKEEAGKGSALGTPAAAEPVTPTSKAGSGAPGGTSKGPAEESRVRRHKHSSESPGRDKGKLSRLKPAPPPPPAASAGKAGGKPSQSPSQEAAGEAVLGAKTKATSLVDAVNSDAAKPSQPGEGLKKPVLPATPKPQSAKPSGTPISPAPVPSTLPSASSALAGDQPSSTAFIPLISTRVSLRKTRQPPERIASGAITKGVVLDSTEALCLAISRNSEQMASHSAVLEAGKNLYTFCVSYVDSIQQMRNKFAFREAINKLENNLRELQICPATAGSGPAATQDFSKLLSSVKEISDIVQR
UniProt P10398: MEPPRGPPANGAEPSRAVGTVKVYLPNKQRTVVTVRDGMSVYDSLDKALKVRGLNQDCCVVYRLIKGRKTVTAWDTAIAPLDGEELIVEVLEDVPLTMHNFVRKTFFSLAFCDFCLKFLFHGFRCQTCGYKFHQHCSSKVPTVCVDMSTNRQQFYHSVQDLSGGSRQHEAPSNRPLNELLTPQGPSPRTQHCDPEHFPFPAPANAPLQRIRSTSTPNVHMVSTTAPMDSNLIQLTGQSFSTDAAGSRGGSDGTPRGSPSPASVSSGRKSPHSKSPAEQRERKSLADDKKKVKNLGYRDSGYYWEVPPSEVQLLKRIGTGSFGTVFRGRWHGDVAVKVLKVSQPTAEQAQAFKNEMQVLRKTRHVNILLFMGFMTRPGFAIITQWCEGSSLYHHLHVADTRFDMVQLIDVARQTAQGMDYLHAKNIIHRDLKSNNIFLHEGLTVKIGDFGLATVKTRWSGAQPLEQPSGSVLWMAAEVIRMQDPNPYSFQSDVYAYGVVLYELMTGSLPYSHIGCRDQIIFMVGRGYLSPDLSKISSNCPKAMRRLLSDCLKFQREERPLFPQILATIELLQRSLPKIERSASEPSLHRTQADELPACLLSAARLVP
UniProt O14965: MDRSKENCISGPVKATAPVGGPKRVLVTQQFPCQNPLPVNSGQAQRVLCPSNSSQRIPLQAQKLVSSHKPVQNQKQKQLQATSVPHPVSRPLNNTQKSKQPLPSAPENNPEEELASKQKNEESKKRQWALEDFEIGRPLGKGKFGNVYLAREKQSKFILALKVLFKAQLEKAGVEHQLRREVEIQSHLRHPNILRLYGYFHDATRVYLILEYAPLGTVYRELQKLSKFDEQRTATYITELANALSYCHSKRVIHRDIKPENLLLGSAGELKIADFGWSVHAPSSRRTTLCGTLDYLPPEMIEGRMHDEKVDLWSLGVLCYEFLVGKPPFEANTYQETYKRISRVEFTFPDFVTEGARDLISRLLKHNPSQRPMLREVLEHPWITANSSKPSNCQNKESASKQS
UniProt Q96GD4, whole entry: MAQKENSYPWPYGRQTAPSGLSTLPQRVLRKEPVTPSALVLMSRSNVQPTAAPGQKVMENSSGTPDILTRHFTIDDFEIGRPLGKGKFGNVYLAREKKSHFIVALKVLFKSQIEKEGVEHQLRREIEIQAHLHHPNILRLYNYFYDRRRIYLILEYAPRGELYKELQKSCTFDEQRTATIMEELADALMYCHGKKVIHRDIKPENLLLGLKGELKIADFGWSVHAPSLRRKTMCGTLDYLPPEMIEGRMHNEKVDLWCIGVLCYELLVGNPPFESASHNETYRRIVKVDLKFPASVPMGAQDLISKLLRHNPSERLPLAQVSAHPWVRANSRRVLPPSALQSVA
UniProt Q9UQB9: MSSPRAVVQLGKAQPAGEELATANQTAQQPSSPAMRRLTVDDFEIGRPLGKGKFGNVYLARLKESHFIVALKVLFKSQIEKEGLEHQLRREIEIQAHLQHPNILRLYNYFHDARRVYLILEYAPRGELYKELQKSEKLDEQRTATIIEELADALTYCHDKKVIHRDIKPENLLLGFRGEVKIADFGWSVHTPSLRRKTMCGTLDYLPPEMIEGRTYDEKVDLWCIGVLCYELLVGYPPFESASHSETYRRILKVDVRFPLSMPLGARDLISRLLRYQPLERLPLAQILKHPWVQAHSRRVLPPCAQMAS
UniProt P51451: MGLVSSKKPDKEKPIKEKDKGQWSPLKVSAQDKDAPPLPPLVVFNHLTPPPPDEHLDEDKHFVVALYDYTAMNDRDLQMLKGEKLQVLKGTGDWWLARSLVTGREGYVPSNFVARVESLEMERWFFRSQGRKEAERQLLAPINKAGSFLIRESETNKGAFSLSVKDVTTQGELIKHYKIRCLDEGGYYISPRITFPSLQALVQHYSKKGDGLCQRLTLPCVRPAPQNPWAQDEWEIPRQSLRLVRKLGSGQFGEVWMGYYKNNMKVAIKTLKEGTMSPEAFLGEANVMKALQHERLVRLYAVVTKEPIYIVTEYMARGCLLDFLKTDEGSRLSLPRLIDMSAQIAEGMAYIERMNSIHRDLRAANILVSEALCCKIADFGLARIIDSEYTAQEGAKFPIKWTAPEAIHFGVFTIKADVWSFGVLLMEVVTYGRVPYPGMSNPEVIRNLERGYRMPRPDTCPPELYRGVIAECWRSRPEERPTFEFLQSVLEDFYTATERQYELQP
UniProt P15056, whole entry, looked up: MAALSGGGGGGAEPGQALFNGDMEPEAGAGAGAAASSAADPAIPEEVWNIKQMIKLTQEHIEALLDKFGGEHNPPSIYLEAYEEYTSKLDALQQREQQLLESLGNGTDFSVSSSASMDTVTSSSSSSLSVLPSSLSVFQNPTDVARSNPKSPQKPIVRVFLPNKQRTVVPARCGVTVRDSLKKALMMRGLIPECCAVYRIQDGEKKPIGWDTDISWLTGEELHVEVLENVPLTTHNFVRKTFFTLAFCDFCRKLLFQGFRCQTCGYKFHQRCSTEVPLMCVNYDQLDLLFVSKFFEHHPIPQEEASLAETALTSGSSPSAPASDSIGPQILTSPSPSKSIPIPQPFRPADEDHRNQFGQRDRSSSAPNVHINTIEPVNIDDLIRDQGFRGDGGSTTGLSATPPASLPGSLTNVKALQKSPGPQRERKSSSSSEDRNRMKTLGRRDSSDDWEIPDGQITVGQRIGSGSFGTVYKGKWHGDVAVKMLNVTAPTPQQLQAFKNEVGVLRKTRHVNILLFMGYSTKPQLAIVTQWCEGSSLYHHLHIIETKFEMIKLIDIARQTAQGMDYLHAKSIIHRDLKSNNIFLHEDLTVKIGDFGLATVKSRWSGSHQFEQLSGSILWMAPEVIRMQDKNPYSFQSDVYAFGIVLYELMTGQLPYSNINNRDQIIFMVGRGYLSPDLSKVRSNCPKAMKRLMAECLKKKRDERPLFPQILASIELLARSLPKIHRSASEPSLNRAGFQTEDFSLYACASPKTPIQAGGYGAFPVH
UniProt Q13555: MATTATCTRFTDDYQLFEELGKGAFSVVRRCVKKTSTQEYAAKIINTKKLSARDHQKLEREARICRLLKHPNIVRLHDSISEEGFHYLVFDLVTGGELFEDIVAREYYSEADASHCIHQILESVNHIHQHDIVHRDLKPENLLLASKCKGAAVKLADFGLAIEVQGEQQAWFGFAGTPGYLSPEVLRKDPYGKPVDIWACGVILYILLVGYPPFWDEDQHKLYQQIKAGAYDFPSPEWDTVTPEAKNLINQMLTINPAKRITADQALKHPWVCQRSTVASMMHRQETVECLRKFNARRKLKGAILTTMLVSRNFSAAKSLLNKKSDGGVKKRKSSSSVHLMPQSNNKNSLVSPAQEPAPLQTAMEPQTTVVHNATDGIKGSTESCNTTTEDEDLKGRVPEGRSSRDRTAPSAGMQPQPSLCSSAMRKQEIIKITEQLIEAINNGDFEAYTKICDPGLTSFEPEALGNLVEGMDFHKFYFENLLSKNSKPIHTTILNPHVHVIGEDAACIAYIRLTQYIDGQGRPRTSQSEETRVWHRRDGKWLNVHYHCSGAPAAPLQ
UniProt Q15131: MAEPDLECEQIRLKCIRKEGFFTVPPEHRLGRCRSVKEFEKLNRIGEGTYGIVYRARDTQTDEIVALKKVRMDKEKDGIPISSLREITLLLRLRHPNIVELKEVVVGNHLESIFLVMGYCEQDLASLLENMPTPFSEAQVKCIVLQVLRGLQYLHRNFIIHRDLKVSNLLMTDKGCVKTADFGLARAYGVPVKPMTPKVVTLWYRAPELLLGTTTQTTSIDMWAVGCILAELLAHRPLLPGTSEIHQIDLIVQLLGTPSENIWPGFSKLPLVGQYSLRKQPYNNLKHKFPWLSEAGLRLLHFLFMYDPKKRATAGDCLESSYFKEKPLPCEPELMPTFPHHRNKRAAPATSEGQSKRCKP
UniProt Q00526: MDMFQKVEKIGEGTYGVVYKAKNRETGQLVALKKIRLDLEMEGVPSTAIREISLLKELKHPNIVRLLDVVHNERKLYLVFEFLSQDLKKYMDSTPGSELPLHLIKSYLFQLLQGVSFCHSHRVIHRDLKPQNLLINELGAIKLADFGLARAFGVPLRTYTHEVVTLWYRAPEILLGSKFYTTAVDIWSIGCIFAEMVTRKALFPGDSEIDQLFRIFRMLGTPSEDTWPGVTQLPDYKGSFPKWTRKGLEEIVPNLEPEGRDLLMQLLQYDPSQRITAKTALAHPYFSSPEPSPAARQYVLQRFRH
UniProt P11802: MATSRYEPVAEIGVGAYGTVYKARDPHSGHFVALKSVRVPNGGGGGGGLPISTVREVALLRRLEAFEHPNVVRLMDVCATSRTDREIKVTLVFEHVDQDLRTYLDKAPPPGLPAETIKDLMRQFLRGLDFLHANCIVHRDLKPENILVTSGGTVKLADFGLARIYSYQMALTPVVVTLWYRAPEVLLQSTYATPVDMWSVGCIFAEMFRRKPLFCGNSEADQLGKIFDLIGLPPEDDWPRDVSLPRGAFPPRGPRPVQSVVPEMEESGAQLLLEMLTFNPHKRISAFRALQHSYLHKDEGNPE
UniProt Q00535, whole entry, looked up: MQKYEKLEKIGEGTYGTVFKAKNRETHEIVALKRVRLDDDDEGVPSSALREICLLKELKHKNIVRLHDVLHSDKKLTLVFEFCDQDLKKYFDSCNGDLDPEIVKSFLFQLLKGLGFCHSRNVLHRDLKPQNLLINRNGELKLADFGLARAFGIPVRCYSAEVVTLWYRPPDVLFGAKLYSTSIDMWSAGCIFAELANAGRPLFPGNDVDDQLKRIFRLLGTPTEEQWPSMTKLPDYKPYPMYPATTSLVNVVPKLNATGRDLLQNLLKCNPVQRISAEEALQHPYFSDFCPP
UniProt Q00534, whole entry: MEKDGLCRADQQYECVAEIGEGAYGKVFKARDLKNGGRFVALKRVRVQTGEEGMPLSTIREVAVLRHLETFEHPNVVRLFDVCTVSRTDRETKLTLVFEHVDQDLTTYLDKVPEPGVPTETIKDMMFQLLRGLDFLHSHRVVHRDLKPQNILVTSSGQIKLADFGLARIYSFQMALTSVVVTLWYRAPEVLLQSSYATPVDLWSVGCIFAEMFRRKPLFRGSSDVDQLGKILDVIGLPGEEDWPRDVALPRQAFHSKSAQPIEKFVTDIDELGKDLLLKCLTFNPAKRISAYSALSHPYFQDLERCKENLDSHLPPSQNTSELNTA

How the values were obtained:
Experiment in all cases: kinase-Nluc reporter destabilization hit call (1 = scored as downregulated) (binary); higher = compound decreases kinase abundance
Details in all cases: K562, 2-18 h
[1] = target: ABL1 (UniProt P00519)
[2] = target: AKT1 (UniProt P31749)
[3] = target: ALK (UniProt Q9UM73)
[4] = target: ARAF (UniProt P10398)
[5] = target: AURKA (UniProt O14965)
[6] = target: AURKB (UniProt Q96GD4)
[7] = target: AURKC (UniProt Q9UQB9)
[8] = target: BLK (UniProt P51451)
[9] = target: BMX (UniProt P51813)
[10] = target: BRAF (UniProt P15056)
[11] = tested on: BRAF_V600E
[12] = target: BTK (UniProt Q06187)
[13] = target: CAMK2A (UniProt Q9UQM7)
[14] = target: CAMK2G (UniProt Q13555)
[15] = target: CDK10 (UniProt Q15131)
[16] = target: CDK2 (UniProt P24941)
[17] = target: CDK3 (UniProt Q00526)
[18] = target: CDK4 (UniProt P11802)
[19] = target: CDK5 (UniProt Q00535)
[20] = target: CDK6 (UniProt Q00534)

Compound	kinase-Nluc reporter destabilization hit call ([1]; 2.5 µM)	kinase-Nluc reporter destabilization hit call ([2]; 2.5 µM)	kinase-Nluc reporter destabilization hit call ([3]; 2.5 µM)	kinase-Nluc reporter destabilization hit call ([4]; 2.5 µM)	kinase-Nluc reporter destabilization hit call ([5]; 2.5 µM)	kinase-Nluc reporter destabilization hit call ([6]; 2.5 µM)	kinase-Nluc reporter destabilization hit call ([7]; 2.5 µM)	kinase-Nluc reporter destabilization hit call ([8]; 2.5 µM)	kinase-Nluc reporter destabilization hit call ([9]; 2.5 µM)	kinase-Nluc reporter destabilization hit call ([10]; 2.5 µM)	kinase-Nluc reporter destabilization hit call ([11]; 2.5 µM)	kinase-Nluc reporter destabilization hit call ([12]; 2.5 µM)	kinase-Nluc reporter destabilization hit call ([13]; 2.5 µM)	kinase-Nluc reporter destabilization hit call ([14]; 2.5 µM)	kinase-Nluc reporter destabilization hit call ([15]; 2.5 µM)	kinase-Nluc reporter destabilization hit call ([16]; 2.5 µM)	kinase-Nluc reporter destabilization hit call ([17]; 2.5 µM)	kinase-Nluc reporter destabilization hit call ([18]; 2.5 µM)	kinase-Nluc reporter destabilization hit call ([19]; 2.5 µM)	kinase-Nluc reporter destabilization hit call ([20]; 2.5 µM)	kinase-Nluc reporter destabilization hit call ([1]; 10 µM)	kinase-Nluc reporter destabilization hit call ([2]; 10 µM)	kinase-Nluc reporter destabilization hit call ([3]; 10 µM)	kinase-Nluc reporter destabilization hit call ([4]; 10 µM)	kinase-Nluc reporter destabilization hit call ([5]; 10 µM)	kinase-Nluc reporter destabilization hit call ([6]; 10 µM)	kinase-Nluc reporter destabilization hit call ([7]; 10 µM)	kinase-Nluc reporter destabilization hit call ([8]; 10 µM)	kinase-Nluc reporter destabilization hit call ([9]; 10 µM)	kinase-Nluc reporter destabilization hit call ([10]; 10 µM)	kinase-Nluc reporter destabilization hit call ([11]; 10 µM)	kinase-Nluc reporter destabilization hit call ([12]; 10 µM)	kinase-Nluc reporter destabilization hit call ([13]; 10 µM)	kinase-Nluc reporter destabilization hit call ([14]; 10 µM)	kinase-Nluc reporter destabilization hit call ([15]; 10 µM)	kinase-Nluc reporter destabilization hit call ([16]; 10 µM)	kinase-Nluc reporter destabilization hit call ([17]; 10 µM)	kinase-Nluc reporter destabilization hit call ([18]; 10 µM)	kinase-Nluc reporter destabilization hit call ([19]; 10 µM)	kinase-Nluc reporter destabilization hit call ([20]; 10 µM)
Cc1cc(Nc2ncc(Cl)c(Nc3ccccc3S(=O)(=O)C(C)C)n2)c(OC(C)C)cc1C1CCNCC1 [Ceritinib dihydrochloride]	inactive: 0	inactive: 0	inactive: 0	inactive: 0	inactive: 0	inactive: 0	inactive: 0	inactive: 0	inactive: 0	inactive: 0	inactive: 0	inactive: 0	inactive: 0	inactive: 0	inactive: 0	inactive: 0	inactive: 0	inactive: 0	inactive: 0	inactive: 0																				
COc1cc2c(cc1OC)-c1c(C)c3ccc(OC)c(OC)c3c[n+]1CC2 [Dehydrocorydaline (chloride)]																					inactive: 0	inactive: 0	inactive: 0	inactive: 0	inactive: 0	inactive: 0	inactive: 0	inactive: 0	inactive: 0	inactive: 0	inactive: 0	inactive: 0	inactive: 0	inactive: 0	inactive: 0	inactive: 0	inactive: 0	inactive: 0	inactive: 0	inactive: 0
C=CC(=O)Nc1cc(Nc2nccc(-c3cn(C)c4ccccc34)n2)c(OC)cc1N(C)CCN(C)C [Osimertinib mesylate]	inactive: 0	inactive: 0	inactive: 0	inactive: 0	inactive: 0	inactive: 0	inactive: 0	active: 1	inactive: 0	inactive: 0	inactive: 0	inactive: 0	inactive: 0	inactive: 0	inactive: 0	inactive: 0	inactive: 0	inactive: 0	inactive: 0	inactive: 0																				
N#CCC1(n2cc(-c3ncnc4[nH]ccc34)cn2)CN(C2CCN(C(=O)c3ccnc(C(F)(F)F)c3F)CC2)C1 [Itacitinib adipate]																					inactive: 0	inactive: 0	inactive: 0	inactive: 0	inactive: 0	inactive: 0	inactive: 0	inactive: 0	inactive: 0	inactive: 0	inactive: 0	inactive: 0	inactive: 0	inactive: 0	inactive: 0	inactive: 0	inactive: 0	inactive: 0	inactive: 0	inactive: 0
C=CC(=O)Nc1cc(Nc2nccc(-c3cn(C4CC4)c4ccccc34)n2)c(OC)cc1N(C)CCN(C)C [Almonertinib]	inactive: 0	inactive: 0	inactive: 0	inactive: 0	inactive: 0	inactive: 0	inactive: 0	inactive: 0	inactive: 0	inactive: 0	inactive: 0	inactive: 0	inactive: 0	inactive: 0	inactive: 0	inactive: 0	inactive: 0	inactive: 0	inactive: 0	inactive: 0																				
N#CCNC(=O)c1ccc(-c2ccnc(Nc3ccc(N4CCOCC4)cc3)n2)cc1 [Momelotinib sulfate]																					inactive: 0	inactive: 0	inactive: 0	inactive: 0	inactive: 0	inactive: 0	inactive: 0	inactive: 0	inactive: 0	inactive: 0	inactive: 0	inactive: 0	inactive: 0	inactive: 0	inactive: 0	inactive: 0	inactive: 0	inactive: 0	inactive: 0	inactive: 0
